The record followed here is paper PMC10175675.

Chains of the proteins cited; added tags and fusions are not shown.
UniProt P68559: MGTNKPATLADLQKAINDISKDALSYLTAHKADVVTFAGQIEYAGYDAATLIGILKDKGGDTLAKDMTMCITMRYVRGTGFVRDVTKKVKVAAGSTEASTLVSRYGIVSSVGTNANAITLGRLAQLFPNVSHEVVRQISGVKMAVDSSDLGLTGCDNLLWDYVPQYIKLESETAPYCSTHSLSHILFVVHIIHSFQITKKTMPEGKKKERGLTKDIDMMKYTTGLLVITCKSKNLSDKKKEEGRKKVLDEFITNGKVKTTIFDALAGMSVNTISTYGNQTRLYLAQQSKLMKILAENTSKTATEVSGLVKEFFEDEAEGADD
UniProt A0A0P0INT0: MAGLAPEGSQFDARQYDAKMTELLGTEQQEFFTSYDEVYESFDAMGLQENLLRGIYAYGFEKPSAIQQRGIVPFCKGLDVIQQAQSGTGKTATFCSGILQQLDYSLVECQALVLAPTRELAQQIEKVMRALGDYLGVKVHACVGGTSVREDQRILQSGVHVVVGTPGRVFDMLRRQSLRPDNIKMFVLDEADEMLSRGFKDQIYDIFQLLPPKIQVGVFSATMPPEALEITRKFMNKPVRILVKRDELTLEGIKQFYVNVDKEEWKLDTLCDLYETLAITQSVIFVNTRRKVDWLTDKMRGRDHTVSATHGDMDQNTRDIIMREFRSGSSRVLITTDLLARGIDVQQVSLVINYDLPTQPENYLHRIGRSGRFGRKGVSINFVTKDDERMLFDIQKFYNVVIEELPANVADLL

Experiment [1] concerns the target cYFP-NbATG5 (Nicotiana benthamiana ATG5) (Nicotiana benthamiana). The experiment can be described thus: split reporter; BiFC screen of RSV proteins against N. benthamiana ATGs in N. benthamiana cells; confocal microscopy.
Experiment [2] shares this target. The experiment in a line: split reporter; BiFC of NbeIF4A and NbATG5 with RFP or p2-RFP co-expressed; laser confocal microscopy at 60 hpi.
Experiment [3] concerns the target NbATG5-GFP (Nicotiana benthamiana ATG5) (Nicotiana benthamiana). The experiment in a line: co-IP; Co-IP of NbeIF4A-myc and NbATG5-GFP with increasing amounts of p2, and of NbATG5 and p2 with NbeIF4A expressed; total proteins extracted at 60 hpi.
The target in experiment [4] is NbATG3 (Nicotiana benthamiana ATG3), BiFC fusion (Nicotiana benthamiana). The experiment can be described thus: split reporter; BiFC screen of RSV proteins against N. benthamiana ATGs in N. benthamiana cells; confocal microscopy.
The target in experiment [5] is NbATG6 (Nicotiana benthamiana ATG6), BiFC fusion (Nicotiana benthamiana). The description is as above.
The target of experiment [6] is NbATG7 (Nicotiana benthamiana ATG7), BiFC fusion (Nicotiana benthamiana). The description is as above.
Experiment [7] addresses NbATG8 (Nicotiana benthamiana ATG8), BiFC fusion (Nicotiana benthamiana). Described as above.
The target of experiment [8] is NbATG5-GFP (Nicotiana benthamiana ATG5) (Nicotiana benthamiana). The experiment can be described thus: co-IP; proteins transiently expressed using agrobacterium in leaf tissues; total proteins immunoprecipitated at 60 hpi using anti-GFP beads; immunoblot with anti-GFP and anti-myc. (A western blot detects proteins with antibodies after separation by electrophoresis.)

The target of experiment [9] is BK-NbATG5 (pGBK-NbATG5; Nicotiana benthamiana ATG5) (Nicotiana benthamiana). The experiment can be described thus: two-hybrid; yeast two hybrid; AD-p2 and BK-NbATG5; SD medium (-Ade/-His/-Leu/-Trp) with X-gal, serial 10-fold dilutions.
Experiment [10] has as its target nLUC-NbATG5 (Nicotiana benthamiana ATG5) (Nicotiana benthamiana). The experiment can be described thus: split reporter; firefly luciferase complementation imaging (LCI) in N. benthamiana leaves; detached at 72 hpi, sprayed with 1 mM luciferin; CCD imaging.

These are yes or no findings as the source states them, for the method shown. For some of these results: Binding calls can cover weak binding; strength is not graded here. Tags and fused reporters may be left off the sequences shown. For some of these results: Binding seen in cells or lysates may run through a third protein.

For the molecule “nYFP-CP (rice stripe virus coat protein) (from UniProt P68559 1-322)”, in experiment [1], the binding result was “no binding”.
As to “nYFP-NbeIF4A (Nicotiana benthamiana eIF4A) (from UniProt A0A0P0INT0 1-413)”, the binding result in experiment [2] is listed as “binds”.
On to “NbeIF4A-myc (Nicotiana benthamiana eIF4A) (from UniProt A0A0P0INT0 1-413)”, for which, in experiment [3], the binding entry is on record as “binds”.

B1: nYFP-p2 (rice stripe virus p2 protein) (protein, UniProt Q89717 1-199)
chain: MALLLFNDHYYGFLHKYKRHTGSYDNLFNLRCSKEDHYLNSLDAIWLMGCCEEFTDPALRAHALAIATESNIGLVNNNAVISDERLKCWLCKKPSHQQTEHLKLILLPNLVNGFQFATESYHICLKDHSGDDPTQYLSEFSFPTGLRAYYKPHQKMEHKHIVVTNGIPISKNFNEIALPDPSPSDDYVLVGAHECPILM
Take B1: the binding result was “no binding” in experiment [4]; “no binding” in [5]; “no binding” in experiment [6]; “no binding” in [7]; “binds” in experiment [1].

B2: p2-RFP (rice stripe virus p2 protein fused to red fluorescence protein) (protein, UniProt Q89717 1-199)
chain: B1 chain
Take B2: in [2], the binding result is on record as “binds”.

B3: p2-myc (rice stripe virus p2 protein) (protein, UniProt Q89717 1-199)
chain: B1 chain
Regarding B3, in experiment [8], the binding entry was “binds”.

B4: AD-p2 (pGAD-p2; rice stripe virus p2 protein) (protein, UniProt Q89717 1-199)
chain: B1 chain
Turning to B4, the binding entry in experiment [9] was “binds”.

B5: RSV p2 protein (construct of the Co-IP of Figure 5E,F, tag not stated) (protein, UniProt Q89717 1-199)
chain: B1 chain
Consider B5, for which, in experiment [3], the binding result is given as “binds”.

B6: cLUC-p2 (rice stripe virus p2 protein) (protein, UniProt Q89717 1-199)
chain: B1 chain
In the case of B6, the binding result in [10] is reported as “binds”.
